Data reported in PubChem BioAssay AID1688 (National Center for Advancing Translational Sciences (NCATS), 2009).
The whole screen tested about 220,000 compounds, of which about 2,400 (1.1%) were called active. Inconclusive means that the source gave no clear call. Such entries were picked first, then a sample of the others. Calls come from the whole dose curve; as a rule, active = well fitted inhibition curve with a large enough effect; inconclusive = small, poorly fitted or top-dose-only effect, or effect the other way; inactive = no such curve, though single readings can be large or run the other way. Potencies beside an inconclusive call are fits to weak or partial responses and may not hold up.
% is set by controls: 0 for no effect and ±100 for the full control effect; potency is the fitted concentration of half-maximal effect.

Assay: qHTS Multiplex Assay to Identify Dual Action Probes in a Cell Model of Huntington: Aggregate Formation (GFP); note: nearly all actives have a fitted effect of over 60% in size
Settings: PC12 HttQ103-GFP aggregates, Acumen cytometry, 40 h; activity change, negative = inhibition: at 46.1 µM (top of the series) unless noted
Outline: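 Quantitative HTS on tebufenozide-induced (100 nM) PC12 cells stably expressing polyQ103 Huntingtin exon 1–GFP. Reduction of bright GFP aggregates, detected by laser scanning cytometry after lysis, identified actives across the titration.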
In the case of COc1cc2c(cc1OC)CN(C(=O)CCCOc1ccc(Cl)cc1Cl)CC2, the Potency is reported as inconclusive: 15.8 µM [inhibitor, single point].
For CCn1c2ccccc2c2cc(/C=N/NC(=O)c3ccc(O)cc3)ccc21, the Potency was “inactive”.
In the case of NC(=S)Nc1cccc2cccnc12, the Potency is reported as “inactive”.
With Cc1ccc(NC(=O)Cn2c(O)c(N=NC(=O)c3cc([N+](=O)[O-])ccc3O)c3ccccc32)cc1 the Potency was inconclusive: 5.62 µM [inhibitor, single point].
With Cc1nn(-c2ccccc2)c(C)c1C(=O)NCc1cccs1 the Potency was “inactive”.
For COC(=O)/C(=C\c1ccc([N+](=O)[O-])o1)NC(=O)c1ccccc1, the Potency was “inactive”.
For Cc1cc(N2CCN(C)CC2)ccc1NC(=O)c1c2c(nc3ccccc13)CCN(Cc1ccccc1)C2, the Potency was inconclusive: 0.1 µM [activator, full curve, poor fit].
In the case of CCCCN1C(=O)C2Cc3c([nH]c4ccccc34)CN2C1=S (centres undefined), the Potency is reported as inconclusive: 35.5 µM [inhibitor, single point].
In the case of CCc1nnc(NC(=O)CSc2nccn2-c2cccc(C)c2C)s1, the Potency is reported as inconclusive: 12.6 µM [inhibitor, single point].
With CCCCCCN(C(=O)CCl)c1ccccc1 the activity change, negative = inhibition was inactive: -6.69% [at 9.22 µM].
In the case of COc1ccc(-c2cc(N)n(S(=O)(=O)c3ccc(F)cc3)n2)cc1OC, the Potency is reported as inconclusive: 35.5 µM [inhibitor, single point].
With CC(C)Oc1cccc(C(=O)NC(=S)Nc2cccnc2)c1 the Potency was “inactive”.
With CCCCN(CCCNC(=O)CN1C(=O)COc2ccccc21)c1ccccc1 the Potency was inconclusive: 25.1 µM [inhibitor, single point].
For Cc1c(C(=O)Nc2ccc(F)cc2)oc2ccc(S(=O)(=O)N3CCC4(CC3)OCCO4)cc12, the Potency was inconclusive: 11.2 µM [inhibitor, single point].
In the case of CC(C)c1ccc(-c2nnn(Cc3nc4ccccc4s3)n2)cc1, the Potency is reported as inconclusive: 31.6 µM [inhibitor, single point].
With O=C1CC(c2ccco2)CC2=C1C1c3ccccc3C(=O)N1c1ccccc1N2 (centres undefined) the Potency was inconclusive: 3.98 µM [activator, full curve].
For COc1ccc(C/C(N)=N/OC(C)=O)cc1OC, the Potency was “inactive”.
For CCn1c(=S)sc2c(=O)n(-c3ccccc3)c(=S)[nH]c21, the Potency was “inactive”.
In the case of CC(C)C(NC(=O)C12CC3CC(CC(C3)C1)C2)C(=O)NC1=NCCS1 (centres undefined), the Potency is reported as “inactive”.
For CN([C@@H](Cc1ccc(OS(=O)(=O)c2cccc3cnccc23)cc1)C(=O)N1CCN(c2ccccc2)CC1)S(=O)(=O)c1cccc2cnccc12, the Potency was inconclusive: 1.58 µM [inhibitor, full curve].
With Cc1ccc(C)n1-c1ccc(-c2nnco2)cc1 the Potency was inconclusive: 3.55 µM [activator, partial curve].
In the case of c1ccc(CC2CCN(c3nnnn3-c3ccccc3)CC2)cc1, the Potency is reported as inconclusive: 28.2 µM [inhibitor, partial curve].
With O=C1c2ccccc2NC(c2ccc(-c3ccc(Br)cc3)o2)N1O (centres undefined) the Potency was inconclusive: 3.98 µM [inhibitor, partial curve].
In the case of CCOC(=O)c1cnc2c(-c3ccc(Cl)cc3)cnn2c1C, the activity change, negative = inhibition is reported as inactive: -1.69% [at 9.22 µM].
In the case of COc1ccc(N=Nc2nc(-c3ccccc3)c(-c3ccccc3)[nH]2)cc1, the Potency is reported as inconclusive: 35.5 µM [inhibitor, single point].
In the case of CCOc1cccc(/C(O)=C2/C(=O)C(=O)N(Cc3ccco3)C2c2ccncc2)c1 (centres undefined), the Potency is reported as “inactive”.
With O=C(Oc1c(Cl)cc(Cl)c2cccnc12)c1cccs1 the Potency was active: 10 µM.
With O=C(N/N=C/c1ccc(Br)s1)c1c[nH]c2ccccc12 the Potency was inconclusive: 35.5 µM [activator, single point].
For CN1C2CCC1/C(=C\c1ccccc1Cl)C(=O)/C2=C\c1ccccc1Cl, the Potency was inconclusive: 17.8 µM [activator, single point].
With CC(=O)c1cc2c(cc1NC(=O)c1c(-c3ccccc3)noc1C)OCO2 the Potency was inconclusive: 35.5 µM [inhibitor, single point].
With CCCCn1c(SCC(N)=O)nc2ccc(N3CCOCC3)cc2c1=O the Potency was “inactive”.
With N#Cc1cn(CCCOc2ccccc2)c2ccccc12 the Potency was inconclusive: 10 µM [inhibitor, partial curve].
In the case of CCN(CC)CCCNC(=O)c1sc2ncn(CC(=O)Nc3ccc(C)c(Cl)c3)c(=O)c2c1C, the Potency is reported as inconclusive: 35.5 µM [inhibitor, single point].
With CC(=O)c1ccc(OC(=O)CCc2nc3ccccc3s2)cc1 the Potency was inconclusive: 6.31 µM [activator, full curve, poor fit].
In the case of CCCCCC(=O)NNC1CC(=O)N(c2ccccc2)C1=O (centres undefined), the activity change, negative = inhibition is reported as inactive: 3.34% [at 9.22 µM].
With Cc1ccccc1-n1nnnc1SCc1csc(-c2ccccc2)n1 the Potency was inconclusive: 35.5 µM [inhibitor, single point].
With O=C(COc1ccc(Cl)cc1)N1CCN(c2ccc([N+](=O)[O-])c(N3CCCCC3)c2)CC1 the Potency was “inactive”.
With COc1ccc(S(=O)(=O)Nc2cc3c4c(oc3c3ccccc23)CCCC4=O)cc1 the Potency was “inactive”.
With O=C(COC(=O)Cn1cnc2ccccc21)Nc1cc2c(cc1Cl)C(=O)c1ccccc1C2=O the Potency was inconclusive: 35.5 µM [inhibitor, single point].
For CC1(C)CC2(CCCN(C(=S)Nc3ccccc3)C2)CCO1 (centres undefined), the activity change, negative = inhibition was inactive: -2.36% [at 9.22 µM].
In the case of COc1ccc(Cl)cc1N(C)C(=O)CCc1nc(-c2ccc(C)cc2)no1, the Potency is reported as inconclusive: 35.5 µM [inhibitor, single point].
For CC(=O)NCCc1c[nH]c2ccc(OCC(O)CNC(C)(C)C)cc12 (centres undefined), the activity change, negative = inhibition was inactive: 11.7% [at 9.22 µM].
For O=C(C1CCCN(c2nnc(-n3cccc3)s2)C1)N1CCN(c2ccccc2)CC1 (centres undefined), the Potency was inconclusive: 10 µM [activator, partial curve].
For Cc1cc(=O)[nH]c(SCc2cc(Cl)ccc2OC(F)F)n1, the Potency was inconclusive: 22.4 µM [inhibitor, single point].
With Cc1cccc(C(=O)Nc2cccc(OC(=O)c3cccc(C)c3)c2)c1 the Potency was “inactive”.
In the case of Cc1ccc(-c2nc(NC(=O)CSc3nnc(C)s3)ns2)cc1, the Potency is reported as inconclusive: 14.1 µM [inhibitor, single point].
In the case of O=C(CSc1ccc(-c2ccccc2)nn1)N1CCN(c2ccccc2)CC1, the Potency is reported as inconclusive: 2.24 µM [activator, full curve].
With CNc1nc(C)nc(N/N=C/c2ccccc2)n1 the activity change, negative = inhibition was inactive: 3.6% [at 9.22 µM].
With CCCCCCn1c(=O)[nH]c2c(c1=O)CCC2 the activity change, negative = inhibition was inactive: -11.1% [at 9.22 µM].
In the case of Cc1cccc(NC(=O)CSC2=NN3CCCC(=O)N=C3S2)c1C, the activity change, negative = inhibition is reported as inactive: 16% [at 9.22 µM].
For CCOC(=O)c1cc2c(ccn2C)n1CC(=O)N(Cc1ccccc1)c1ccc(F)cc1, the Potency was inconclusive: 12.6 µM [inhibitor, single point].
For COc1ccc(NC(=O)c2c(Nc3ccccc3)sc(C(=O)c3ccc(F)cc3)c2N)cc1, the Potency was inconclusive: 22.4 µM [inhibitor, single point].
In the case of N#C/C(=C/c1ccc(N2CCCCCC2)o1)c1cccc(F)c1, the Potency is reported as inconclusive: 35.5 µM [inhibitor, single point].
With O=C(CN(Cc1ccccc1)S(=O)(=O)c1ccccc1)N/N=C/c1ccccc1C(=O)O the activity change, negative = inhibition was inactive: -5.51% [at 9.22 µM].
In the case of Nc1c(C(=O)NCc2ccco2)c2nc3ccccc3nc2n1CCc1ccccc1, the Potency is reported as inconclusive: 11.2 µM [inhibitor, single point].
For O=C(CCn1c(=O)sc2ccccc21)NCc1ccco1, the Potency was inconclusive: 11.2 µM [inhibitor, partial curve].
In the case of Cc1c(Br)c(=O)oc2c(Br)c(O)c(O)cc12, the Potency is reported as inconclusive: 0.708 µM [inhibitor, full curve, poor fit].
With COc1ccc(-c2nnc(NC(=O)c3ccc(S(=O)(=O)N4CCCc5ccccc54)cc3)o2)cc1 the Potency was inconclusive: 15.8 µM [inhibitor, single point].
In the case of CCOc1ccccc1CN1CCN(S(C)(=O)=O)CC1, the Potency is reported as inconclusive: 5.62 µM [inhibitor, single point].
With O=C(NCCN1CCOCC1)c1ccc2c(c1)N(Cc1cccc(F)c1)C(=O)c1ccccc1S2 the Potency was “inactive”.
For Cc1cc(C)cc(NC(=S)NCC2CCN(C(C)c3ccccc3)C2)c1 (centres undefined), the Potency was inconclusive: 35.5 µM [inhibitor, single point].
With CN(C)Cc1cc(CCNC(=O)c2ccc(Cl)cc2)ccc1O the Potency was inconclusive: 31.6 µM [activator, single point].
In the case of CCOC(=O)c1c(NC(=S)Nc2ccc(OC)cc2)sc2c1CCCCC2, the Potency is reported as inconclusive: 0.891 µM [inhibitor, partial curve].
With O=C(NCc1ccc2c(c1)OCO2)c1ccc(CS(=O)(=O)c2cccc(C(F)(F)F)c2)o1 the Potency was inconclusive: 17.8 µM [inhibitor, single point].
In the case of CCOC(=O)C(NC(C)=O)(Nc1ccc(S(=O)(=O)Nc2nccs2)cc1)C(F)(F)F (centres undefined), the Potency is reported as inconclusive: 5.62 µM [inhibitor, partial curve].
With CC(=O)c1cc(CC=C(C)C)c(O)cc1O the Potency was inconclusive: 17.8 µM [inhibitor, partial curve].
With Cc1nc2ccccc2n1/N=C/c1ccc([N+](=O)[O-])s1 the Potency was active: 5.01 µM.
For COCCCNC(=S)NNC(=O)C1CC1c1ccc(C(C)(C)C)cc1 (centres undefined), the Potency was inconclusive: 11.2 µM [inhibitor, single point].
With CCCCNC(=S)N=Nc1c(O)n(Cc2ccccc2)c2ccccc12 the Potency was inconclusive: 4.47 µM [inhibitor, single point].
